Some of the results follow. Shown are side measurements of this screen, not its main read-out; they come without a call.
Key:
[1] = growth inhibition of wild-type GFP E. coli, dose response, h38 mutant RFP, cherry-pick (AID 977622); conditions: E. coli mixed culture, 24 h, total growth OD600 at 50 uM
[2] = system: E. coli h38 humanized mutant ribosome RFP fluorescence, mixed culture, 24 h; test: as above; conditions: h38 mutant RFP at 50 uM

Cc1cc(C)c(OCCNC(=O)c2ccccc2Sc2ccccc2C#N)c(C)c1
activity change [1]: -37.4% | activity change [2]: 40.4%

COc1cc2c(cc1OC)CN(CC(=O)Nc1ccccc1SC)CC2
activity change [1]: -19.2% | activity change [2]: -12.3%

O=C(c1ccccc1)N1CCN(c2ccc([N+](=O)[O-])c(NCC3CCCO3)c2)CC1 (stereo not drawn)
activity change [1]: -4.86% | activity change [2]: 0.149%

CSc1ccc(CN(C)CC(=O)NC(C)c2ccccc2)cc1 (stereo not drawn)
activity change [1]: -15.5% | activity change [2]: 43.8%

CC1(C(=O)NCCc2c[nH]c3ccccc23)CCN1CC1CCCCC1 (stereo not drawn)
activity change [1]: -87.4% | activity change [2]: 57.3%

CCN(C(=O)COC(=O)c1ccc([N+](=O)[O-])o1)c1cccc2ccccc12
activity change [1]: -11.8% | activity change [2]: -24%

O=C1CCCCC1Nc1ccc(Br)cc1 (stereo not drawn)
activity change [1]: -34.8% | activity change [2]: -30%

Cn1cc([N+](=O)[O-])c(C(=O)Nc2ccc(-c3nc4ccccc4[nH]3)cc2)n1
activity change [1]: -38.9% | activity change [2]: -7.05%

Nc1nn(-c2ccccc2)c2ccc([N+](=O)[O-])cc12
activity change [1]: 5.35% | activity change [2]: 2.17%

Nc1nc(=S)ss1
activity change [1]: -18.6% | activity change [2]: -32.2%

COC(=O)c1c(-c2ccc(OC)cc2)sc2cc(OC)c(OC)cc12
activity change [1]: -46.1% | activity change [2]: -40.7%

O=c1[nH]c(C2CCCN(S(=O)(=O)c3ccccc3Cl)C2)nc2c1nnn2Cc1ccc2c(c1)OCCO2 (stereo not drawn)
activity change [1]: -24.2% | activity change [2]: -4.63%

Brc1ccccc1Cn1c(-c2cncs2)nc2ccccc21
activity change [1]: -8.66% | activity change [2]: -8.85%

Cc1c(Cc2ccc3c(c2)OCO3)sc(NC(=O)C2CC2)c1C(N)=O
activity change [1]: -61.7% | activity change [2]: -17.8%

CN1C(=O)c2cc(NC(=O)c3cccc(F)c3)ccc2OC[C@H]2O[C@@H](CC(=O)N3CCc4ccccc4C3)CC[C@@H]21
activity change [1]: -32% | activity change [2]: -21.5%

CN1CCN(c2nc(-c3cccnc3)nc3scc(-c4ccccc4)c23)CC1
activity change [1]: -88.6%

O=C(Nc1ccc2c(c1)OCCO2)C1C(c2ccccc2)=Nc2ccccc2N1C(=O)c1cccnc1 (stereo not drawn)
activity change [1]: -10.1% | activity change [2]: 0.574%

COc1cccc(S(=O)(=O)N2CCCCN3[C@H](C2)[C@@H](c2ccc(C#CC(C)C)cc2)[C@@H]3CO)c1
activity change [1]: -6.89% | activity change [2]: -3.86%

Cc1cccc(-n2cnc3cc([N+](=O)[O-])ccc32)c1
activity change [1]: -4.88% | activity change [2]: -5.01%

CC1CCCN(c2nc(N(C)c3ccccc3)nc(N)c2[N+](=O)[O-])C1 (stereo not drawn)
activity change [1]: -39.8% | activity change [2]: -37.3%

COc1ccc(NC(=O)Nc2cccc3c2O[C@@H](CN(C)S(=O)(=O)c2ccc(Cl)cc2)[C@H](C)CN([C@@H](C)CO)C3=O)cc1
activity change [1]: -22.9% | activity change [2]: -4.28%

COc1cccc(S(=O)(=O)N2CCCCN3[C@@H](CO)[C@@H](c4ccc(C#CC(C)C)cc4)[C@@H]3C2)c1
activity change [1]: -95.6% | activity change [2]: -59.9%

O=C(COC(=O)c1cccc(S(=O)(=O)N2CCCCC2)c1)NCc1cccc(Cl)c1
activity change [1]: -30.5% | activity change [2]: -20.9%

CCC(=O)N1[C@H](CO)[C@@H]2c3ccccc3N(C(=O)Nc3ccc(Cl)cc3)C[C@@H]21
activity change [1]: -7.33% | activity change [2]: 1.62%

Nc1ccccc1C#CC(=O)c1ccccc1
activity change [1]: -45% | activity change [2]: -39.9%

CN(C)S(=O)(=O)c1cccc(C(=O)Nc2ccc(C(=O)Nc3cccc(S(N)(=O)=O)c3)cc2)c1
activity change [1]: -8.9% | activity change [2]: -19%

Cc1cc(C(=O)Nc2ccc3ccccc3c2)c(C)o1
activity change [1]: -27.7%

O=C(CN(c1ccc(F)cc1)S(=O)(=O)c1ccccc1)Nc1ccccc1C(=O)O
activity change [1]: -7.23% | activity change [2]: 66.9%

CCN1CCN(c2c(Cl)cccc2NC(=O)c2ccc([N+](=O)[O-])o2)CC1
activity change [1]: -63% | activity change [2]: -44.7%

Cc1ccccc1-n1ncc2c(SCC(=O)N3c4ccccc4CC3C)ncnc21 (stereo not drawn)
activity change [1]: -68.4% | activity change [2]: 18%

O=C(CSc1nnc(COc2cccc3cccnc23)o1)c1ccc(F)cc1
activity change [1]: -16.9% | activity change [2]: -9.09%

Cc1ccn2cc(-c3cccc(NC(=O)c4cccs4)c3)nc2c1
activity change [1]: 7.08% | activity change [2]: -39%

COc1ccc(-c2nc3ccc(Cl)cn3c2Cc2cccc(F)c2)cc1OC
activity change [1]: -76.9% | activity change [2]: -12.9%

N#Cc1ccc(OCC(=O)N2CCN(S(=O)(=O)c3ccc(Cl)s3)CC2)cc1
activity change [1]: -37.4% | activity change [2]: -12.4%

COc1cccc(C(=O)NC2CC3CCCC(C2)N3S(=O)(=O)c2ccccc2)c1 (stereo not drawn)
activity change [1]: -54.5% | activity change [2]: 2.3%
